Data taken from ChEMBL document CHEMBL3988442, “University of Dundee, Small-Polar-MMV Screening Library” (2021).

By UniProt entry, the sequences of proteins in these tests, tags left out. Residues count along the entry.
UniProt P9WPC5, whole entry: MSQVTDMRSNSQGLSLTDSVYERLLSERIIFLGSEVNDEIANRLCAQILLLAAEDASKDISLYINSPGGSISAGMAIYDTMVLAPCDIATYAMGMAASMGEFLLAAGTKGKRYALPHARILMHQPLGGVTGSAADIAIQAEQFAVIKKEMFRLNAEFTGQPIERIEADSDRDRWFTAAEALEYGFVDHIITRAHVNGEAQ
UniProt P9WPC3, whole entry partner: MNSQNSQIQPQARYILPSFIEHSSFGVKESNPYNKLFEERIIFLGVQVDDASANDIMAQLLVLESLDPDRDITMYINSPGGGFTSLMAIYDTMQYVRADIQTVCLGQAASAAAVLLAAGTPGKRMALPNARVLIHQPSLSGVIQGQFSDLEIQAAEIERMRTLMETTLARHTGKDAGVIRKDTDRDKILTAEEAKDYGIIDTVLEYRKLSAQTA
UniProt Q8IDJ8, 1-583: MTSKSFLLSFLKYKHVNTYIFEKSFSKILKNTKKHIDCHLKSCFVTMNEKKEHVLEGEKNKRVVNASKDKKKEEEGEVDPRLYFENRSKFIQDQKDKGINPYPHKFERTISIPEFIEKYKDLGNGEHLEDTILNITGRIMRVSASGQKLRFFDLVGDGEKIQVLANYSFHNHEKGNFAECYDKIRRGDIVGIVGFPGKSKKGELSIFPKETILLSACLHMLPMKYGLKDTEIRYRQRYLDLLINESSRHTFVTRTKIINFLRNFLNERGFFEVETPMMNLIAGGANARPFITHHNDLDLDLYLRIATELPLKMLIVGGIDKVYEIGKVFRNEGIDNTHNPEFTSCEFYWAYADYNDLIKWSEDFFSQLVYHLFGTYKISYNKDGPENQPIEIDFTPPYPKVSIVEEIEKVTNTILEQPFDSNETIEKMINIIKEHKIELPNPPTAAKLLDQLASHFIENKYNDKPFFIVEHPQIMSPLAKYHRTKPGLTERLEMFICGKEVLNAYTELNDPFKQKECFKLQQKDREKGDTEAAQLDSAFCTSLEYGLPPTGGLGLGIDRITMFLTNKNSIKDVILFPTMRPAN

A: 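Cell assay of Leishmania donovani living inside macrophages; the read-out is not stated. Tested at 30 µM. Higher reads as stronger inhibition (inferred: compounds with an IC50 in retests scored well above the rest). Size under these conditions: about 69,000 compounds, about 1,000 of them at 50% or above in at least one test.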
B: 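Protease assay of ClpP1P2, read by the AMC dye that it sets free. Target: ClpP1P2, Mycobacterium tuberculosis (UniProt P9WPC5 and UniProt P9WPC3). Compounds at 50 µM. Direction is inferred from only a few compounds that gave an IC50; most scored high, so higher reads as stronger inhibition. Most other retested compounds had strongly negative values. About 69,000 compounds were tested under these conditions; 0.015% (about 10) showed 50% or more at least once.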
C: 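Assay of Toxoplasma gondii numbers, read through their beta-galactosidase reporter with a colour substrate. Compounds at 10 µM. Higher reads as fewer parasites (inferred from which compounds were picked for retests). About 67,000 compounds were tested under these conditions; 0.38% (about 260) showed 50% or more at least once.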
D: 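Enzyme assay of the cytosolic lysyl-tRNA synthetase in 384-well plates, read by luminescence. Target: Lysine-tRNA ligase, Plasmodium falciparum 3D7 (UniProt Q8IDJ8). Concentration: 30 µM. Direction is inferred from only a few compounds that gave an IC50; most scored high, so higher reads as stronger inhibition. About 69,000 compounds were tested under these conditions; 0.071% (about 49) showed 50% or more at least once.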

Values are the deposited “Percent Effect”, in %.
How 0% and 100% were set is not recorded. Most values in the screen are low, and negative values occur.
Compounds were drawn at random from those tested, without regard to their results.
Two or more numbers in one place are separate tests of the same structure; such repeats can differ widely.
A dash means the value is not listed here; it may have been measured.

| # | compound | A | B | C | D |
|---|---|---|---|---|---|
| 1 | `CC(C)CN1CCC2(Cc3ccccc3NC2=O)C1` (stereo unspecified) | 14.61 | -0.2551 | 11.17 | -2.122 |
| 2 | `O=C(Cc1cccs1)N1C[C@H]2CN(CC3CCCO3)CC[C@H]2C1` (stereo partly specified) | - | -13.14 | - | 4.238 |
| 3 | `Cc1cc(Cc2ccc(S(=O)(=O)N3CCSCC3)cc2)c(=O)[nH]n1` | 4.344 | -5.047 | 8.08 | -0.5919 |
| 4 | `Cc1cc(O)cc(=O)n1CCCC(=O)Nc1n[nH]c2cccc(F)c12` | -23.19 | -23.96 | 10.83 | 6.763 |
| 5 | `COc1ccc(CCN(C)C(=O)c2cc(C(C)=O)c[nH]2)cc1OC` | -14.43 | 9.312 | 4.131 | 2.997 |
| 6 | `CCOCCC(=O)NCC1COc2c(cccc2OC)C1` (stereo unspecified) | 12.62 | -3.928 | 12.91 | 4.6 |
| 7 | `CC(=O)Nc1nc(C)c(S(=O)(=O)NCCc2cccnc2)s1` | 8.356 & 17 | 4.63 | -10.28 | 3.087 |
| 8 | `COCC(=O)NCc1cc(=O)n2c(n1)CN(CC1CCOC1)CCC2` (stereo unspecified) | - | 12.17 | - | -1.036 |
| 9 | `COCC1CN(S(=O)(=O)N(C)C)Cc2cnn(CC3CCCC3)c21` (stereo unspecified) | - | -17.57 | - | 6.514 |
| 10 | `CS(=O)(=O)N1CCCC12CCN(Cc1nccs1)CC2` | - | -8.31 | - | 2.155 |
| 11 | `NCC1(c2cccc(C(F)(F)F)c2)CCOCC1` | 8.709 | 6.87 | 1.957 | 9.357 |
| 12 | `CCN(CC)c1ccc(C(=O)N2CCC(c3nc(C)no3)CC2)cn1` | -3.784 | -39.24 | 7.038 | 2.615 |
| 13 | `Cc1n[nH]c(C)c1-c1cc(-c2cc[nH]c2)nc(N)c1C#N` | -10.4 | -224.9 | -0.1602 | 5.72 |
| 14 | `O=C(c1ccc(C2CCCN2C(=O)c2ccoc2)s1)N1CCOCC1` (stereo unspecified) | 4.953 | -7.791 | -1.59 | 7.133 |
| 15 | `CN(Cc1ccc(-n2cncn2)cc1)Cc1ncc[nH]1` | 21.6 | 8.867 | 1.902 | 1.566 |
| 16 | `Cc1cnc(-c2nc(C3CCCN(Cc4ccccc4C)C3)no2)cn1` (stereo unspecified) | - | 20.81 | - | 0 |
| 17 | `CC(=O)N1CCC2(CC1)C(=O)N(CC1CCN(C)CC1)c1ccccc12.O=C(O)C(F)(F)F` | 11.37 | - | -4.549 | - |
| 18 | `COc1ncccc1NC(=O)NC(C)(C)c1ncc(C)s1` | 0.538 | -2.941 | 0.9604 | -3.633 |
| 19 | `O=C(NCc1cc[nH]n1)NCC(c1ccc(F)cc1)N1CCOCC1` (stereo unspecified) | 1.928 | 20.28 | -19.02 | 0.6799 |
| 20 | `CN(C)C(=O)C1CCC2(CCN(C(=O)Nc3ccc(F)cc3)CC2)O1` (stereo unspecified) | 25.04 | 17.07 | 9.706 | 4.863 |
| 21 | `Cc1cc(C(=O)Nc2ccc3c(ccn3CCN3CCOCC3)c2)on1` | -2.631 | 0.5319 | 15.12 | 3.915 |
| 22 | `Cc1ccc(CN2CC[C@H]3C[C@H](C(=O)N4CCCO4)O[C@@H]3C2)o1` | - | 2.464 | - | 2.119 |
| 23 | `COc1ccc(CCNC(=O)N2CCN(C)[C@@H]3CS(=O)(=O)C[C@@H]32)cc1` | - | -11.25 | - | 6.561 |
| 24 | `[H][C@@]12CN(C(=O)NC(C)C)C[C@@]1([H])N(CC(C)C)C(=O)CO2` | -12.38 & -10.93 | - | -13.98 | - |
| 25 | `O=C(NCCc1[nH]nc2c1CCCC2)C1CCCN(Cc2ccco2)C1` (stereo unspecified) | 18.95 | -10.18 | 2.923 | 0.3559 |
| 26 | `CCn1cc(NC(=O)NCC2(N3CCOCC3)CCSC2)cn1` (stereo unspecified) | 6.177 | 1.309 | -1.269 | 0.8557 |
| 27 | `COc1ccc2c(c1)c(C(=O)Nc1cc(C)n(C)n1)cn2C(C)C` | 10.51 | -6.787 | 8.219 | -0.02368 |
| 28 | `[H][C@@]12C[C@@H](O)C[C@]1([H])CN(Cc1cc(C(C)(C)C)ccc1OCC(=O)O)C2` | 16.7 | - | -13.14 | - |
| 29 | `O=C(O)C(F)(F)F.O=C(O)C(F)(F)F.[H][C@@]12CCC(=O)N(Cc3ccncc3)[C@]1([H])CCN2Cc1ccc(C)s1` | 33.25 | - | 4.63 | - |
| 30 | `CC(C(=O)Nc1cccc(Cl)c1)N1CCN(Cc2ncc[nH]2)CC1` (stereo unspecified) | 35.15 | 0.9926 | -1.396 | 6.219 |
| 31 | `N#Cc1cc(F)ccc1Cn1cncn1` | 7.678 | 1.777 | -1.768 | 5.251 |
| 32 | `O=C(O)C(F)(F)F.O=C(O)C(F)(F)F.c1ccc(OCc2nnc3n2CCN(CC2CC2)C3)nc1` | 29.65 | - | 5.41 | - |
| 33 | `[H][C@@]12CN(C(=O)COCC)C[C@]1([H])C(=O)N(CC1CC1)C2` | 10.71 | - | -27.33 | - |
| 34 | `CCOCC(O)CN1CCN(C(=O)CC(C)(C)C)CC1` (stereo unspecified) | 1.216 | 6.616 | -5.342 | 8.742 |
| 35 | `CO[C@@H]1CCN(Cc2ccoc2)[C@@H]2CN(Cc3ccco3)C[C@@H]21` | - | -8.475 | - | -2.652 |
| 36 | `O=C(O)C(F)(F)F.O=C(O)C(F)(F)F.[H][C@]12CCN(C(C)C)C[C@@]1([H])CN(Cc1cccnc1OC)C2` | -4.656 | - | -20.01 | - |
| 37 | `CN(C)CC(=O)N1CCOCC(Cc2ccccn2)C1` (stereo unspecified) | 29.97 | 8.887 | - | 4.983 |
| 38 | `CC(C)n1nc(CN(C)C)c2c1CN(CC1CC1)CC2.O=C(O)C(F)(F)F.O=C(O)C(F)(F)F` | 27.29 | - | 0.9169 | - |
| 39 | `Cc1nc(C2CCCN2CCc2cccs2)no1` (stereo unspecified) | 11.31 | 7.69 | -0.6112 | 7.031 |
| 40 | `COCCCNC(=O)NCc1cccn1Cc1ccccc1C` | 9.575 | -13.26 | -9.879 | 4.343 |
| 41 | `Cn1cccc1C(=O)N1CCC2(CCN(C(=O)c3cccnc3)C2)CC1` | - | -4.031 | - | 2.651 |
| 42 | `CC(C)N(C)Cc1cnc2n1CCN(C(=O)Cc1ccccn1)C2` | - | 18.74 | - | -0.1518 |
| 43 | `Cc1ccc(Cl)cc1NC(=O)Cn1cc(C(=O)O)ccc1=O` | -16.52 | 6.39 | 11.03 | -1.132 |
| 44 | `O=S(=O)(c1ccccc1)N1CCC2(CCCN2Cc2cccc(Cl)c2)C1` (stereo unspecified) | - | 0.007661 | - | 2.139 |
| 45 | `CCc1ncc(C(=O)N2CCN(c3nc(C)cc(OC)n3)CC2)s1` | -7.676 | 3.767 | -1.357 | 3.361 |
| 46 | `COCCCN(Cc1ccncc1)C(=O)C1COc2ccccc2C1` (stereo unspecified) | 17.17 | -6.788 | 4.965 | -3.254 |
| 47 | `Cc1cc(C(=O)N2CCC3(CC2)CC(c2cccnc2)C(=O)N3)no1.O=C(O)C(F)(F)F` (stereo unspecified) | 2.391 | - | 7.091 | - |
| 48 | `COCCn1/c(=N\C(=O)CN(C)S(C)(=O)=O)sc2cc(C)ccc21` | -44.75 | 4.381 | -8.143 | -2.389 |
| 49 | `Cc1noc(C)c1CN1CCC(NC(=O)OC(C)(C)C)CC1` | 3.614 | -7.676 | -0.4515 | 1.959 |
| 50 | `CN(C)C(=O)NC1COC2(CCN(Cc3ccc(Cl)c(F)c3)CC2)C1` (stereo unspecified) | - | 9.681 | - | -1.3 |
| 51 | `Cc1ccc(C(=O)N2CC[C@H]3O[C@@H](c4noc(C)n4)C[C@H]3C2)o1` | - | -3.855 | - | 2.047 |
| 52 | `CN1CCCCC1c1cncc(Cl)n1.Cl` (stereo unspecified) | 9.533 | - | -32.86 | - |
| 53 | `Cc1noc(Cl)c1CCC(=O)N1CCN(Cc2ccncc2)CC1` | 5.469 | -21.45 | 8.345 | -0.2646 |
| 54 | `Cc1cccc(NC(=O)[C@@H]2CCCN2Cc2ccc(C#N)cc2F)n1` | 30.84 | -1.597 | 2.093 | 5.855 |
| 55 | `CC(C)N1CCC2(CC1)C(=O)N(CCN(C)C)c1ccccc12` | - | 1.266 | - | 1.87 |
| 56 | `Cc1ccccc1S(=O)(=O)CCOC(C)C` | -8.367 | -9.096 | -0.4419 | 4.165 |
| 57 | `Cc1nc2cc(NCc3cnn(C)c3)ccc2n1C` | -4.694 | 0.8134 | 0.5302 | 3.23 |
| 58 | `Cc1c(F)cccc1S(=O)(=O)NC(C)(C)CN.Cl` | 22.35 | - | -3.805 | - |
| 59 | `CC(C)COC(C)C(=O)NCc1ccc(F)cc1` (stereo unspecified) | 4.397 | -41.41 | -3.865 | 0.06773 |
| 60 | `CC(C)C(=O)N1CCCC(c2cc(C(F)F)n3ncnc3n2)C1` (stereo unspecified) | - | 1.593 | - | -8.405 |
| 61 | `O=C(NCC1CC1)c1cc(Cl)c2c(c1)OCCCO2` | -15.27 | 4.565 | -2.841 | 0.9232 |
| 62 | `Cc1ccc(N2CCCC3(COCCN(c4nccs4)C3)C2)nn1.O=C(O)C(F)(F)F.O=C(O)C(F)(F)F` (stereo unspecified) | 30.23 | - | 3.691 | - |

Some entries from above, unchanged:

| compound | A | B | C | D |
|---|---|---|---|---|
| `CCc1ncc(C(=O)N2CCN(c3nc(C)cc(OC)n3)CC2)s1` | -7.676 | 3.767 | -1.357 | 3.361 |
| `Cc1cccc(NC(=O)[C@@H]2CCCN2Cc2ccc(C#N)cc2F)n1` | 30.84 | -1.597 | 2.093 | 5.855 |
| `CN(Cc1ccc(-n2cncn2)cc1)Cc1ncc[nH]1` | 21.6 | 8.867 | 1.902 | 1.566 |
| `O=C(c1ccc(C2CCCN2C(=O)c2ccoc2)s1)N1CCOCC1` (stereo unspecified) | 4.953 | -7.791 | -1.59 | 7.133 |
| `COCC(=O)NCc1cc(=O)n2c(n1)CN(CC1CCOC1)CCC2` (stereo unspecified) | - | 12.17 | - | -1.036 |
| `NCC1(c2cccc(C(F)(F)F)c2)CCOCC1` | 8.709 | 6.87 | 1.957 | 9.357 |
| `CCn1cc(NC(=O)NCC2(N3CCOCC3)CCSC2)cn1` (stereo unspecified) | 6.177 | 1.309 | -1.269 | 0.8557 |